The text below walks through data of publication PMC6336889.

Chains of the proteins cited; added tags and fusions are not shown. Residues count along the entry.
UniProt Q01638, residues 19-556: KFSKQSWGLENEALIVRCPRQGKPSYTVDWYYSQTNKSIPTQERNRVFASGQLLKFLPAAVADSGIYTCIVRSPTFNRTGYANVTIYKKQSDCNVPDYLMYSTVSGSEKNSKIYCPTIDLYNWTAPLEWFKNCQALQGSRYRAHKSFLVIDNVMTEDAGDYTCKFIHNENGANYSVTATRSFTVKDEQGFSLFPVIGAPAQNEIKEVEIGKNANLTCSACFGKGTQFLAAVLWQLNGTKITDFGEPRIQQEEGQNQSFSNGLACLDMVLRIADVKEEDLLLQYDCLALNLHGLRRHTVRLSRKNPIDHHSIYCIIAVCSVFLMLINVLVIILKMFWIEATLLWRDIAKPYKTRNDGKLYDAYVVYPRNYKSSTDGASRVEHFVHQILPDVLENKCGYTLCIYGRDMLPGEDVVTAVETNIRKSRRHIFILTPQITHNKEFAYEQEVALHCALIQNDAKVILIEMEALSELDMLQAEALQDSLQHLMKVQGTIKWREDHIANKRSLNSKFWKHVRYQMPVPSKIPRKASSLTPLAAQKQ
UniProt Q9ULT8: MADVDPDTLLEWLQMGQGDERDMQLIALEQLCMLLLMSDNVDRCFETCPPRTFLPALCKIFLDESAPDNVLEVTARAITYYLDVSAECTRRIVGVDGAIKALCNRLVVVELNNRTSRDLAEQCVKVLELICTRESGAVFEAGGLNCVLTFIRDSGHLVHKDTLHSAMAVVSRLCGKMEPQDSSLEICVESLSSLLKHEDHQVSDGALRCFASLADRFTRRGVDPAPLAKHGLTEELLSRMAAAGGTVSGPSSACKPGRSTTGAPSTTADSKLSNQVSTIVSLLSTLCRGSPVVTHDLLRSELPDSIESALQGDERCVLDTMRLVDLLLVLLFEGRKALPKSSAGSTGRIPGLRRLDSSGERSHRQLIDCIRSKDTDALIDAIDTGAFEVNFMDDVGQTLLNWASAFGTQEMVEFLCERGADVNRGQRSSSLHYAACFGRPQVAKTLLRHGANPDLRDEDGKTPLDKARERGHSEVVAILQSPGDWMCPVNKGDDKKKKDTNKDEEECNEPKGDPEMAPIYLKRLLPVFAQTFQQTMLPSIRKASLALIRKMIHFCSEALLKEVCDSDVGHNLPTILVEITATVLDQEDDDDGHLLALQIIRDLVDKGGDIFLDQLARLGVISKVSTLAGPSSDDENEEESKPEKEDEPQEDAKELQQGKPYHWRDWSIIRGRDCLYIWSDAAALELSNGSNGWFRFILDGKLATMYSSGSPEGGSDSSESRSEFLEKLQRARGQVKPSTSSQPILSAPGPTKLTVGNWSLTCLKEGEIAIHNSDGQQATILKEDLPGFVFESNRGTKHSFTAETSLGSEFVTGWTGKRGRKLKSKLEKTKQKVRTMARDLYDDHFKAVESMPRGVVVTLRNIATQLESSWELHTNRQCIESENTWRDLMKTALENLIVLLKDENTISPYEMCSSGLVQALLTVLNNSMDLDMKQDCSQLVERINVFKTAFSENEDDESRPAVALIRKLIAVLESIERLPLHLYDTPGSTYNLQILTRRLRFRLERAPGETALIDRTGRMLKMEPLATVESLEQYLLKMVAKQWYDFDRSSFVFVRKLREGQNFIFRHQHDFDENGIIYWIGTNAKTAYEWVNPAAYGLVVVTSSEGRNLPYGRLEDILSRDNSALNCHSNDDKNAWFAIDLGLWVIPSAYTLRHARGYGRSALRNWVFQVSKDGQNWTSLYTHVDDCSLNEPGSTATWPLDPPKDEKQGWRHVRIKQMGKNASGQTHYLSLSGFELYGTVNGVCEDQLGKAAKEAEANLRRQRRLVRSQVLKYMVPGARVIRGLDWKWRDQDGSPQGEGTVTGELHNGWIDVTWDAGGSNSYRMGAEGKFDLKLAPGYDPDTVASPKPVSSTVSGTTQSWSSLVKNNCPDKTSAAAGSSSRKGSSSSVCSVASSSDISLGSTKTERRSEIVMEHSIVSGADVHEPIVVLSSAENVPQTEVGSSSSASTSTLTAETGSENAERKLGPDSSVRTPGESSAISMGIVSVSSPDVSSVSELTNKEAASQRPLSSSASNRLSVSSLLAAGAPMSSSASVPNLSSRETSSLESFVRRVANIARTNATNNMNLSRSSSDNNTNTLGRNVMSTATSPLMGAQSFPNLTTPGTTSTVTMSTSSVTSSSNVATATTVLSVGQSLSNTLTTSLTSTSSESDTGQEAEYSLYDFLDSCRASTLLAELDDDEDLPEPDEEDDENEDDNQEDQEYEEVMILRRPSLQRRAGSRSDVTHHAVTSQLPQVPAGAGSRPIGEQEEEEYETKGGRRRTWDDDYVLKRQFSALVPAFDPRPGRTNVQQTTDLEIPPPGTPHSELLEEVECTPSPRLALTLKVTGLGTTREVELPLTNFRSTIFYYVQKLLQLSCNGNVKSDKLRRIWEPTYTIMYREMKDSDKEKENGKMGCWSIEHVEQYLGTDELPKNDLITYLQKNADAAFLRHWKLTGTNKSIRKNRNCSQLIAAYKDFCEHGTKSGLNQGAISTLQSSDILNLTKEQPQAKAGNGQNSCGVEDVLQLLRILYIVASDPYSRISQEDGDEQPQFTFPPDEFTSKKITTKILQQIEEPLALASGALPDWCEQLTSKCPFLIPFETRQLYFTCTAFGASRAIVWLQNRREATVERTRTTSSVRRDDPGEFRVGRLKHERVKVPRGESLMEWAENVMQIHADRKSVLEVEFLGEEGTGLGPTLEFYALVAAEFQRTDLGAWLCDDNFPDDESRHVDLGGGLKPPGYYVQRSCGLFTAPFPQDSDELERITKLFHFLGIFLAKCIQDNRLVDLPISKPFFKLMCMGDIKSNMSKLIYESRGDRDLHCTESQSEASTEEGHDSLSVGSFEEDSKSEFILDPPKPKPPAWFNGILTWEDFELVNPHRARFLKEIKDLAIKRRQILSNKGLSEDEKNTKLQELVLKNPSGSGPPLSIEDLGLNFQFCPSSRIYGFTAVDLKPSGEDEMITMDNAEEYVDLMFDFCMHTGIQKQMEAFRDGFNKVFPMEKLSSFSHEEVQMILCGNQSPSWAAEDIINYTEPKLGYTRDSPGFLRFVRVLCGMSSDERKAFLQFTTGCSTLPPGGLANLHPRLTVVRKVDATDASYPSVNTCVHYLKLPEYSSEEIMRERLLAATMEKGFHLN
UniProt P53779: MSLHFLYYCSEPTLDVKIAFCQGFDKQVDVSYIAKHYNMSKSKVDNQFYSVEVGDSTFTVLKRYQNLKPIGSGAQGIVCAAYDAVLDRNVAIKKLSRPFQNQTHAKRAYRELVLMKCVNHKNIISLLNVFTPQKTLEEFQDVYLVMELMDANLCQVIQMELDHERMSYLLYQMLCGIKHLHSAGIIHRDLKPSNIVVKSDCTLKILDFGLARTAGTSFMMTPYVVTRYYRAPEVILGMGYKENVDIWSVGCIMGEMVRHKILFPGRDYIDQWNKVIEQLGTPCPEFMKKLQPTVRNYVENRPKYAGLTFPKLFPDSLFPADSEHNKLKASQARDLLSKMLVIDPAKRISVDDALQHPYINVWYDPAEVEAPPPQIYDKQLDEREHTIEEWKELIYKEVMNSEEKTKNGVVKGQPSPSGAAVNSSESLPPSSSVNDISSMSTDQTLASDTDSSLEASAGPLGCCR
UniProt P06241: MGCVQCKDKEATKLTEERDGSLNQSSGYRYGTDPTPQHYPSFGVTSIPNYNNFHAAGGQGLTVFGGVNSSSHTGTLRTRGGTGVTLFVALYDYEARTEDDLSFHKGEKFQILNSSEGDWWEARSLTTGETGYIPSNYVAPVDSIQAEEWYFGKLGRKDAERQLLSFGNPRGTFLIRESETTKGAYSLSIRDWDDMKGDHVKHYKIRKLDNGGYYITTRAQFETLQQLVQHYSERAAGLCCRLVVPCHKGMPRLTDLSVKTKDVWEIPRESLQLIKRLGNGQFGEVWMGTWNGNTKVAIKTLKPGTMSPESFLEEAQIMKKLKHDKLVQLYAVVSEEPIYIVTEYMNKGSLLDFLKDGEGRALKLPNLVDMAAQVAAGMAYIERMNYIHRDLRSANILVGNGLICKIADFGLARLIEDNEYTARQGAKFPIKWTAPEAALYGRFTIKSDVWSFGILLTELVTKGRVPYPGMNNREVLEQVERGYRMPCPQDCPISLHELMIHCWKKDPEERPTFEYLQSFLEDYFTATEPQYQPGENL

No constants are given. Whether binding was seen depends on the method and setting. Binding seen in cells or lysates may run through a third protein. These calls come from enrichment with a bait or labelling near it, and not all partners need be listed.

This test deals with GST-fused HRAS protein (GST-HRAS) (UniProt P01112). Briefly: affinity purification with mass spectrometry; purified GST-HRAS (GST as control) incubated overnight at 4 °C with pre-cleared human HCC tumor or paired normal tissue lysates; glutathione agarose beads 2 h at 4 °C; washed three times with RIPA buffer; SDS-PAGE, 22 gel slices, LC-MS/MS; only the target purified.
Turning to “Interleukin 1 receptor like 1 (IL1RL1), from human liver tissue (from UniProt Q01638 19-556)”, the binding result was “binds”.

Regarding “hect domain containing E3 ubiquitin protein ligase 1 (HectD1) (from UniProt Q9ULT8 1-2610)”, the binding entry is on record as “binds”.

On to JNK3 (from UniProt P53779 1-464), for which the binding entry is recorded as “binds”.

Take Fyn (from UniProt P06241 1-537): the binding result is on record as “binds”.
